In patent US7906556B2, “Methods of treating amyloidosis using cyclopropyl derivative aspartyl protease inhibitors” (Elan Pharmaceuticals, Inc., priority 2005, dated 2011):

Conditions: CF-1 mice, 10 μmol/kg IV tail vein, non-perfused brain corrected for plasma volume

In the case of `CN1C(=O)CN=C(c2ccccc2)c2cc(Cl)ccc21` [Diazepam], the “concentration level in the brain at 5 min” value (5 min post dose) is reported as 5481 nM and the “concentration level in the brain at 60 min” value (60 min post dose) is reported as 176 nM.
